# Results reported in PubChem BioAssay AID504834 (National Center for Advancing Translational Sciences (NCATS), 2011).
# Values joined by “and” are separate entries in the source; they are usually repeats but may differ in a detail not shown here. Equal values may be shown once. The whole screen tested about 320,000 compounds, of which about 22,000 (6.9%) were called active. The inconclusive results got no clear call from the source; some entries with a clear call stand among them for comparison. The call rests on the fitted dose curve; in most records, active means well fitted inhibition curve with a large enough effect; inconclusive means small, poorly fitted or top-dose-only effect, or another doubt; inactive means no such curve, though single readings can be large or run the other way. Where the call is inconclusive, the potency comes from a doubtful curve fit.
# Test: Primary qHTS for delayed death inhibitors of the malarial parasite plastid, 96 hour incubation
# Settings: P. falciparum luciferase reporter growth; series mostly up to 28.7 µM
# How it was run: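 Plates of compound plus infected erythrocytes (2% hematocrit, 0.05% parasitemia final) incubate 96 hours, 37 C, 5% CO2. Detection reagent added; reduced luminescence from the parasites' luciferase reporter flags inhibition.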
# Potency means the concentration at half of the fitted maximal effect.
row,SMILES,Potency
1,NC(=O)c1ccc(-c2ccccc2F)cc1,inactive
2,COc1ccc(C2=NOC(C(=O)N3CCOCC3)C2)cc1OC (stereo not given),inactive
3,COc1ccc(C2CC(=O)N3CN(c4ccc(C)c(Cl)c4)CSC3=C2C#N)cc1OC (stereo not given),inactive
4,Cn1c(N)c(C(=O)COC(=O)C2(c3ccccc3F)CCCC2)c(=O)n(C)c1=O,inactive
5,Cc1cc(Nc2ccc(C)c(Br)c2)n2nc(C)nc2n1,"inconclusive: 18.5 µM [inhibitor, single point]"
6,Cc1ccc(N/N=C(\C#N)C(N)=S)c(C)c1,"inconclusive: 0.0117 µM [inhibitor, full curve, poor fit]"
7,O=C(CN1CCN(c2ccccn2)CC1)Nc1cccc(S(=O)(=O)N2CCCC2)c1,"inconclusive: 8.28 µM [inhibitor, partial curve, poor fit]"
8,O=C(c1sc2cccc(F)c2c1Cl)N1CCN(c2ncccn2)CC1,"inconclusive: 4.15 µM [inhibitor, single point]"
9,Cc1cccc(NC(=O)CCN2CCC(C)CC2)c1,inactive
10,CCC(=O)Nc1ccccc1C(=O)OCc1ccc(C(=O)c2ccccc2)cc1,inactive
11,Cc1ccc(S(=O)(=O)Cn2nnnc2C(C(C)C)N2CCC(C(N)=O)CC2)cc1 (stereo not given),"inconclusive: 10.4 µM [inhibitor, single point]"
12,O=C(CSc1nnc(-c2ccncc2)n1CC1CCCO1)Nc1cccc(O)c1 (stereo not given),"inconclusive: 18.5 µM [inhibitor, single point]"
13,CC(=O)N=C1SC2CS(=O)(=O)CC2N1c1c(Cl)cccc1Cl (stereo not given),"inconclusive: 18.5 µM [inhibitor, single point]"
14,Cc1cn2c(N)c(C=C3C=C(Cl)C(=O)C(Cl)=C3)c(=O)nc2s1,inactive
15,CCOc1ccc(-n2nc3c(SCCN4CCCC4)nnc(C)c3c2C)cc1,inactive
16,COc1ccc(CCNC(=O)COC(=O)/C=C/c2ccc(OC)c(OC)c2)cc1,"inconclusive: 18.5 µM [inhibitor, single point]"
17,O=C(c1ccco1)N1CCN(C(c2ccccc2F)c2nnnn2Cc2cccs2)CC1 (stereo not given),"inconclusive: 18.5 µM [inhibitor, single point]"
18,CCOC(=O)C(C)C1(O)c2ccccc2-c2ncccc21 (stereo not given),"inconclusive: 14.7 µM [inhibitor, single point]"
19,O=C(COc1cccc(C(F)(F)F)c1)NNC(=O)Cc1ccc(S(=O)(=O)N2CCOCC2)s1,"inconclusive: 8.28 µM [inhibitor, partial curve, poor fit]"
20,C=CCNCc1cccn1-c1ccccc1,"inconclusive: 10.4 µM [inhibitor, partial curve]"
21,O=C(Nc1ccc(-n2cccn2)cc1)C1CCCCN1Cc1cccc2cccnc12 (stereo not given),"inconclusive: 14.7 µM [inhibitor, single point]"
22,COc1cc(C(=S)N2CCOCC2)cc(OC)c1OC(=O)c1cccc(C)c1,inactive
23,CCOC(=O)C1(Cc2ccccc2C)CCCN(C(=O)c2ccnn2C)C1 (stereo not given),"inconclusive: 10.4 µM [inhibitor, single point]"
24,CCCc1c(C)c(C#N)c2nc3ccccc3n2c1NCCCN1CCOCC1,"inconclusive: 11.7 µM [inhibitor, single point]"

row,SMILES,Potency
1,O=C(N/N=C/c1cccc(Br)c1)c1ccc(Br)cc1,inactive
2,O=C1S/C(=C/c2ccccc2)C(=O)N1CC(O)Cn1c2ccccc2c2ccccc21 (stereo not given),"inconclusive: 8.28 µM [inhibitor, partial curve, poor fit]"
3,Cc1ccccc1OCC(=O)Nc1cc(S(=O)(=O)N2CCOCC2)ccc1N1CCCC1,active: 7.38 µM
4,CN1C(=O)NC(c2ccc([N+](=O)[O-])cc2)C2=C1CC(C)(C)CC2=O (stereo not given),"inconclusive: 2.62 µM [inhibitor, single point]"
5,COc1ccc(COC(=O)c2ccc(C)c(S(=O)(=O)N3CCOCC3)c2)cc1F,active: 10.4 µM
6,Cc1ccc2c(C)ccc(O)c2n1,"inconclusive: 18.5 µM [inhibitor, single point]"
7,CC(=O)c1c(C)[nH]c(C2=NNC(=NC(C)(C)C)SC2)c1C,active: 2.62 µM
8,CC1=Nn2c(nnc2-c2ccco2)SC1,"inconclusive: 11.7 µM [inhibitor, single point]"
9,O=C(Nc1ccc(Cl)cc1C(=O)N1CCOCC1)c1ccco1,"inconclusive: 18.5 µM [inhibitor, single point]"
10,CCOCCCNC(=O)c1cn(CC)c2ccc(S(=O)(=O)N(C)C3CCCCC3)cc2c1=O,"inconclusive: 18.5 µM [inhibitor, single point]"
11,CC(C)c1c(C(=O)N/N=C/c2ccc(OCc3ccccc3)cc2)nnn1-c1nonc1N,"inconclusive: 5.86 µM [inhibitor, partial curve]"
12,COc1cc(C(=S)N2CCOCC2)ccc1OC(=O)c1ccc(Br)cc1,active: 5.22 µM
13,O=c1c2ccccc2nc2n1C(CBr)CN2 (stereo not given),"inconclusive: 0.657 µM [inhibitor, full curve, poor fit]"
14,Nc1nc(/C=C/c2cccnc2)nc(-c2ccccc2O)n1,"inconclusive: 1.85 µM [inhibitor, full curve]"
15,CCN1C(=O)N(S(=O)(=O)C(F)(F)F)[C@@H](c2ccccc2)C(C(=O)OC)=C1C,"inconclusive: 11.7 µM [inhibitor, single point]"
16,O=C1NC(=S)S/C1=C\C=C\c1ccc([N+](=O)[O-])o1,active: 0.294 µM
17,O=C(NCCc1ccccc1)c1ccc(Cl)c(S(=O)(=O)N2CCOCC2)c1,active: 10.4 µM
18,O=C(CSc1ncc(-c2ccccc2)n1CC1CCCO1)N1CCCCC1 (stereo not given),"inconclusive: 9.28 µM [inhibitor, partial curve, poor fit]"
19,COc1ccc(-c2ccn(-c3cccc(F)n3)n2)cc1,inactive
20,Cc1cnc(C(=O)OCC(=O)Nc2cc(-c3ccccc3)nn2-c2ccccc2)cn1,"inconclusive: 13.1 µM [inhibitor, single point]"
21,Cc1sc2ncnc(N3CCN(c4ncccn4)CC3)c2c1C,"inconclusive: 2.94 µM [inhibitor, single point]"
22,COc1ccc(NC(=S)Nc2ccc(S(=O)(=O)N3CCOCC3)cc2)c(OC)c1,"inconclusive: 13.1 µM [inhibitor, single point]"
23,Cc1ccc(C2c3c(C)nn(-c4ccc([N+](=O)[O-])cc4)c3N=C3C(=O)Nc4ccccc4N32)cc1 (stereo not given),"inconclusive: 0.262 µM [inhibitor, partial curve, poor fit]"
24,CN(c1ccc(C(=O)O)cc1)S(=O)(=O)c1ccccc1,active: 9.28 µM

# Exported with bars between the fields: 17 of the compounds above
row | SMILES | Potency
20 | C=CCNCc1cccn1-c1ccccc1 | inconclusive: 10.4 µM [inhibitor, partial curve]
21 | O=C(Nc1ccc(-n2cccn2)cc1)C1CCCCN1Cc1cccc2cccnc12 (stereo not given) | inconclusive: 14.7 µM [inhibitor, single point]
22 | COc1cc(C(=S)N2CCOCC2)cc(OC)c1OC(=O)c1cccc(C)c1 | inactive
23 | CCOC(=O)C1(Cc2ccccc2C)CCCN(C(=O)c2ccnn2C)C1 (stereo not given) | inconclusive: 10.4 µM [inhibitor, single point]
24 | CCCc1c(C)c(C#N)c2nc3ccccc3n2c1NCCCN1CCOCC1 | inconclusive: 11.7 µM [inhibitor, single point]
1 | O=C(N/N=C/c1cccc(Br)c1)c1ccc(Br)cc1 | inactive
2 | O=C1S/C(=C/c2ccccc2)C(=O)N1CC(O)Cn1c2ccccc2c2ccccc21 (stereo not given) | inconclusive: 8.28 µM [inhibitor, partial curve, poor fit]
3 | Cc1ccccc1OCC(=O)Nc1cc(S(=O)(=O)N2CCOCC2)ccc1N1CCCC1 | active: 7.38 µM
4 | CN1C(=O)NC(c2ccc([N+](=O)[O-])cc2)C2=C1CC(C)(C)CC2=O (stereo not given) | inconclusive: 2.62 µM [inhibitor, single point]
5 | COc1ccc(COC(=O)c2ccc(C)c(S(=O)(=O)N3CCOCC3)c2)cc1F | active: 10.4 µM
6 | Cc1ccc2c(C)ccc(O)c2n1 | inconclusive: 18.5 µM [inhibitor, single point]
7 | CC(=O)c1c(C)[nH]c(C2=NNC(=NC(C)(C)C)SC2)c1C | active: 2.62 µM
8 | CC1=Nn2c(nnc2-c2ccco2)SC1 | inconclusive: 11.7 µM [inhibitor, single point]
9 | O=C(Nc1ccc(Cl)cc1C(=O)N1CCOCC1)c1ccco1 | inconclusive: 18.5 µM [inhibitor, single point]
10 | CCOCCCNC(=O)c1cn(CC)c2ccc(S(=O)(=O)N(C)C3CCCCC3)cc2c1=O | inconclusive: 18.5 µM [inhibitor, single point]
11 | CC(C)c1c(C(=O)N/N=C/c2ccc(OCc3ccccc3)cc2)nnn1-c1nonc1N | inconclusive: 5.86 µM [inhibitor, partial curve]
12 | COc1cc(C(=S)N2CCOCC2)ccc1OC(=O)c1ccc(Br)cc1 | active: 5.22 µM

# (cont.)

row,SMILES,Potency
1,O=C(c1cc(COc2ccc3ncccc3c2)on1)N1CCCC(O)C1 (stereo not given),"inconclusive: 18.5 µM [inhibitor, single point]"
2,O=[N+]([O-])c1ccc(Cl)cc1,"inconclusive: 16.5 µM [inhibitor, single point]"
3,CC(=O)Nc1cccc(NC(=O)CSc2ccc(-c3ccccn3)nn2)c1,"inconclusive: 16.5 µM [inhibitor, single point]"
4,COc1ccc(NC(=O)CSc2nc(-c3ccncc3)nn2CC(=O)N2CCCC2)cc1,"inconclusive: 10.4 µM [inhibitor, single point]"
5,CNC(=S)N/N=C/c1cn(CCOc2ccc(OC)cc2)c2ccccc12,active: 5.86 µM
6,Cc1nn(-c2ccc(N3CCOCC3)nn2)c(C)c1CCC(=O)N1CCN(C)CC1,"inconclusive: 18.5 µM [inhibitor, single point]"
7,O=C(COc1ccc(S(=O)(=O)N2CCOCC2)cc1)N1CCc2ccccc2C1,"inconclusive: 4.65 µM [inhibitor, partial curve, poor fit]"
8,CC(Sc1nnc(CN2CCCC2)n1Cc1ccccc1)C(=O)Nc1ccc(F)cc1 (stereo not given),"inconclusive: 18.5 µM [inhibitor, single point]"
9,CC(C)[C@H](NC(=O)[C@@H]1CSC2c3ccccc3C(=O)N21)C(=O)NC1CCCC1 (stereo not given in full),inactive
10,CC(C)(C)S(=O)(=O)c1ccc2nc3c(n2c1)CCCC3,inactive
11,CS(=O)(=O)N(CCCC(=O)N1CCCCCC1)c1cccc(Cl)c1,"inconclusive: 4.15 µM [inhibitor, partial curve]"
12,COc1cc(/C=C2/SC(=O)NC2=O)ccc1OC(=O)c1ccco1,"inconclusive: 10.4 µM [inhibitor, single point]"
13,O=C(c1ccco1)N1CCN(c2cc(=O)n(C3CCCCC3)c(=O)[nH]2)CC1,"inconclusive: 0.262 µM [inhibitor, full curve, poor fit]"
14,CCCn1c(N)c(C(=O)CSc2nnnn2-c2ccc(O)cc2)c(=O)n(C)c1=O,"inconclusive: 1.47 µM [inhibitor, full curve]"
15,CCCC(=O)Nc1nnc(-c2ccco2)s1,active: 13.1 µM
16,CC1CN=C(NC2CCCCC2C)S1 (stereo not given),"inconclusive: 11.7 µM [inhibitor, partial curve, poor fit]"
17,CC(C)CN1CCNC(=O)C1CC(=O)NCCc1cnn(-c2ccccc2)c1 (stereo not given),"inconclusive: 0.294 µM [inhibitor, full curve, poor fit]"
18,O=C(Nc1ccc(Cl)cc1)N1CCOCC1,"inconclusive: 18.5 µM [inhibitor, single point]"
19,O=C(c1cccs1)N1CCN=C1SCc1cccnc1,inactive
20,CC(Sc1nnnn1C1CCCC1)C(=O)Nc1cccc(S(=O)(=O)N2CCOCC2)c1 (stereo not given),"inconclusive: 10.4 µM [inhibitor, partial curve, poor fit]"
21,Cc1ccc2nc(/C(C#N)=N/O)[nH]c2c1,active: 13.1 µM
22,O=C1c2ccccc2C(=O)C1c1ccc(Cl)cc1,"inactive and inconclusive: 4.78 µM [inhibitor, partial curve, poor fit]"
